According to US20180162932A1 (ACADEMISCH MEDISCH CENTRUM, published 2018):
Results are given in words; binding and its absence hold for the method and conditions named. Some binding calls cover weakened binding; strength is not graded here.

Protein sequences, listed by entry. Tags and fused reporters are not part of them. Lines headed by an entry give the natural chain unless they say otherwise; changes in a name come on top.
UniProt P12643: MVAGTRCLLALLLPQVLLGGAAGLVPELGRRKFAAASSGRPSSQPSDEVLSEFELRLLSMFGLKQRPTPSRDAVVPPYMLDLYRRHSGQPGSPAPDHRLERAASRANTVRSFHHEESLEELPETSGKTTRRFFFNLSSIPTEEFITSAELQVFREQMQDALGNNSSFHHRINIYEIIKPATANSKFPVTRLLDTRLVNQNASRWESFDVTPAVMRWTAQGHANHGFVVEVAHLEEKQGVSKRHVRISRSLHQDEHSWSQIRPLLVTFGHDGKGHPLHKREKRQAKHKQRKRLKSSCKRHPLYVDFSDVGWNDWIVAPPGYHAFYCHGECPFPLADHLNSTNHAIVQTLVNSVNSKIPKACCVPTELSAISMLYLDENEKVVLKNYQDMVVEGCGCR

Key:
[1] = target: mature bone morphogenic protein 2 (human, UniProt P12643 283-396); test: SPR, control on chip, BMP injected
[2] = target: T1, human mature bone morphogenic protein 5 (human, UniProt P22003 340-454); test: SPR, control on chip, BMP injected
T1 construct: Often printed as BMPS in the text; also called BMP5; BMPS (so in the source)
T1 sequence: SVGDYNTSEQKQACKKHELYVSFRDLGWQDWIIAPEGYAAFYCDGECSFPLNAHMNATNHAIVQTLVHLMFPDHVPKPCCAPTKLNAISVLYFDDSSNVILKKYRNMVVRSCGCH

[3] = target: T2, human mature bone morphogenic protein 6 (human, UniProt P22004 375-513); test: SPR, control on chip, BMP injected
T2 construct: also called BMP6; BMP-6
T2 sequence: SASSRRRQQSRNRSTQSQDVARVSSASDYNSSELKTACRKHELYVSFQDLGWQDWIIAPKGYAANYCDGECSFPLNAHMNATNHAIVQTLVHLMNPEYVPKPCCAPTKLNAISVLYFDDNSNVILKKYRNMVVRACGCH

[4] = target: T3, human mature bone morphogenic protein 7 (human, UniProt P18075 293-431); test: SPR, control on chip, BMP injected
T3 construct: also called BMP7; BMP-7
T3 sequence: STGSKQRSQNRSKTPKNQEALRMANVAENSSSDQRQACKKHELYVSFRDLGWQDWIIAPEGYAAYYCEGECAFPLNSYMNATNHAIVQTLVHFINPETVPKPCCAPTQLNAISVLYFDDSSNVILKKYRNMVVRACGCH

[5] = target: T4, human mature bone morphogenic protein 4 (human, UniProt P12644 295-408); test: SPR, control on chip, BMP injected
T4 sequence: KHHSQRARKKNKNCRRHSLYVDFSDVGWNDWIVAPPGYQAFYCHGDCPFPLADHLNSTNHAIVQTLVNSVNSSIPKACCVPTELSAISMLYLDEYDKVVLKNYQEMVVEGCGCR

[6] = target: T4, human mature bone morphogenic protein 4; test: SPR sandwich (epitope binning): BMP4 captured on the spotted molecule, then mNoggin injected [F]

Measured: binding

B1: mouse Noggin (other, UniProt P97466 28-232, looked up)
chain: QHYLHIRPAPSDNLPLVDLIEHPDPIFDPKEKDLNETLLRSLLGGHYDPGFMATSPPEDRPGGGGGPAGGAEDLAELDQLLRQRPSGAMPSEIKGLEFSEGLAQGKKQRLSKKLRRKLQMWLWSQTFCPVLYAWNDLGSRFWPRYVKVGSCFSKRSCSVPEGMVCKPSKSVHLTVLRWRCQRRGGQRCGWIPIQYPIISECKCSC
binds: all assays above
